PubChem BioAssay AID493246, Drosophila RNAi Screening Center – 2011
The screen tested about 21,000 reagents; this is a random part of those that have a named target and a result. In the full data, 429 (2%) are marked active. 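Values are raw and not normalised between plates; calls rest on per-plate z-scores that were not deposited.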 Reagents against one gene are numbered here. A plus sign joins genes that one reagent is predicted to hit. The record does not give: the amount of reagent, the time to read-out.

Assay: 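Identify essential fly genes by loss of cell viability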 (primary screen)
Cell system: Drosophila Kc and S2R+ cells
Knock-down reagent: long dsRNA against Drosophila genes
Detection: 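Raw, unnormalised count of remaining cells in each well; per-plate z-scores of cell number underlie the calls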
Scale: Kc cell number and S2R+ cell number: higher = more cells remaining
Rule for the call: 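Counted as a hit if cell number falls by a z-score of at least 3 within its plate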

| gene | dsRNA no. | Kc cell number, rep 1 | Kc cell number, rep 2 | S2R+ cell number, rep 1 | S2R+ cell number, rep 2 | Outcome |
| --- | --- | --- | --- | --- | --- | --- |
| Nf-YA | 1 | 1.51e6 | 1.45e6 | 8.74e5 | 1.03e6 | inactive |
| cv | 1 | 1.61e6 | 1.57e6 | 1.08e6 | 1.15e6 | inactive |
| pum | 1 | 1.57e6 | 1.64e6 | 1.08e6 | 1.32e6 | inactive |
| pum | 2 | 1.83e6 | 1.79e6 | 1.12e6 | 1.36e6 | inactive |
| pum | 3 | 1.32e6 | 1.24e6 | 8.14e5 | 9.56e5 | inactive |
| pum | 4 | 1.72e6 | 1.98e6 | 1.32e6 | 1.48e6 | inactive |
| CG11693 | 1 | 1.65e6 | 1.75e6 | 1.34e6 | 1.52e6 | inactive |
| CG12035 | 1 | 1.30e6 | 1.47e6 | 1.26e6 | 1.19e6 | inactive |
| CG9447 | 1 | 1.57e6 | 1.68e6 | 1.31e6 | 1.48e6 | inactive |
| CG30428 | 1 | 1.45e6 | 1.52e6 | 9.56e5 | 1.07e6 | inactive |
| Flad1 | 1 | 5.86e5 | – | 8.59e5 | – | inactive |
| att-ORFB + DPCoAC | 1 | 1.47e6 | 1.45e6 | 1.06e6 | 1.13e6 | inactive |
| RabX2 | 1 | 1.39e6 | 1.49e6 | 1.07e6 | 1.19e6 | inactive |
| CG14273 | 1 | 1.61e6 | 1.66e6 | 1.16e6 | 1.29e6 | inactive |
| Mlc1 | 1 | 1.48e6 | 1.51e6 | 9.00e5 | 9.94e5 | inactive |
| Tsp42Ee | 1 | 1.61e6 | 1.77e6 | 1.24e6 | 1.37e6 | inactive |
| SCCRO4 | 1 | 1.52e6 | 1.61e6 | 1.26e6 | 1.36e6 | inactive |
| CG33310 | 1 | 1.49e6 | 1.53e6 | 1.24e6 | 1.36e6 | inactive |
| CG32486 | 1 | 1.35e6 | 1.36e6 | 1.05e6 | 8.84e5 | inactive |
| CG32486 | 2 | 1.48e6 | 1.38e6 | 1.03e6 | 1.41e6 | inactive |
| abo | 1 | 1.57e6 | 1.61e6 | 1.13e6 | 1.25e6 | inactive |
| CG43707 | 1 | 1.65e6 | 1.53e6 | 1.23e6 | 1.39e6 | inactive |
| Spn75F | 1 | 1.47e6 | 1.50e6 | 1.09e6 | 1.26e6 | inactive |
| CG9876 | 1 | 1.68e6 | 1.73e6 | 1.33e6 | 1.54e6 | inactive |
| PolD3 | 1 | 1.29e6 | 1.32e6 | 1.28e6 | 1.26e6 | inactive |
| Kpc1 | 1 | 1.87e6 | 2.01e6 | 1.47e6 | 1.58e6 | inactive |
| dyl | 1 | 1.30e6 | 1.40e6 | 1.08e6 | 1.01e6 | inactive |
| dyl | 2 | 1.54e6 | 1.50e6 | 1.08e6 | 1.41e6 | inactive |
| Tmf | 1 | 1.42e6 | 1.42e6 | 1.03e6 | 1.11e6 | inactive |
| CG12171 | 1 | 1.34e6 | 1.36e6 | 1.28e6 | 1.39e6 | inactive |
| CG30002 | 1 | 1.46e6 | 1.51e6 | 1.00e6 | 1.07e6 | inactive |
| CG15194 (retired record) | 1 | 1.62e6 | 1.69e6 | 1.03e6 | 1.16e6 | inactive |
| CG15194 (retired record) | 2 | 1.59e6 | 1.64e6 | 1.01e6 | 1.15e6 | inactive |
| Prp19 | 1 | 1.53e6 | 1.56e6 | 1.10e6 | 1.20e6 | inactive |
| CG1504 | 1 | 1.49e6 | 1.54e6 | 8.56e5 | 9.52e5 | inactive |
| RpL23 | 1 | 1.10e6 | 1.17e6 | 7.25e5 | 9.05e5 | active |
| Jon99Ciii | 1 | 1.37e6 | 1.42e6 | 8.34e5 | 9.21e5 | inactive |
| PPO2 | 1 | 1.31e6 | 1.35e6 | 1.12e6 | 1.18e6 | inactive |
| Him | 1 | 1.45e6 | 1.43e6 | 1.06e6 | 1.13e6 | inactive |
| Tsen2 | 1 | 1.43e6 | 1.49e6 | 9.03e5 | 1.14e6 | inactive |
| lov | 1 | 1.62e6 | 1.55e6 | 1.34e6 | 1.35e6 | inactive |
| lov | 2 | 1.61e6 | 1.54e6 | 1.32e6 | 1.26e6 | inactive |
| mthl14 | 1 | 1.50e6 | 1.47e6 | 1.00e6 | 1.15e6 | inactive |
| Arpc4 | 1 | 1.51e6 | 1.46e6 | 1.15e6 | 1.32e6 | inactive |
| armi | 1 | 1.58e6 | 1.37e6 | 1.03e6 | 1.20e6 | inactive |
| rad (retired record) | 1 | 1.60e6 | 1.60e6 | 1.01e6 | 1.17e6 | inactive |
| Ir68a | 1 | 1.31e6 | 1.24e6 | 1.22e6 | 1.35e6 | inactive |
| Syx8 | 1 | 1.48e6 | 1.57e6 | 1.04e6 | 1.20e6 | inactive |
| mRpL4 | 1 | 1.30e6 | 1.32e6 | 1.21e6 | 1.32e6 | inactive |
| Iswi | 1 | 1.69e6 | 1.71e6 | 1.28e6 | 1.52e6 | inactive |
| Ehbp1 | 1 | 1.44e6 | 1.40e6 | 1.23e6 | 1.20e6 | inactive |
| Incenp | 1 | 1.57e6 | 1.57e6 | 1.20e6 | 1.36e6 | inactive |
| Vps25 | 1 | 1.97e6 | 1.98e6 | 1.48e6 | 1.67e6 | inactive |
| CG34038 | 1 | 1.42e6 | 1.45e6 | 9.62e5 | 1.04e6 | inactive |
| Dp1 | 1 | 1.60e6 | 1.56e6 | 9.92e5 | 1.11e6 | inactive |
| ATPsynbeta | 1 | 7.62e5 | 8.29e5 | 7.90e5 | 8.97e5 | active |
| RFeSP | 1 | 1.69e6 | 1.63e6 | 9.91e5 | 1.03e6 | inactive |
| shd | 1 | 1.28e6 | 1.38e6 | 1.21e6 | 1.30e6 | inactive |
| clt | 1 | 1.46e6 | 1.54e6 | 1.21e6 | 3.37e5 | inactive |
